# Test results reported in article PMC9813255.
# B1: FLAG-FL-PQBP5 (protein, UniProt Q9BSC4-1 1-688)
# chain: MQVSSLNEVKIYSLSCGKSLPEWLSDRKKRALQKKDVDVRRRIELIQDFEMPTVCTTIKVSKDGQYILATGTYKPRVRCYDTYQLSLKFERCLDSEVVTFEILSDDYSKIVFLHNDRYIEFHSQSGFYYKTRIPKFGRDFSYHYPSCDLYFVGASSEVYRLNLEQGRYLNPLQTDAAENNVCDINSVHGLFATGTIEGRVECWDPRTRNRVGLLDCALNSVTADSEINSLPTISALKFNGALTMAVGTTTGQVLLYDLRSDKPLLVKDHQYGLPIKSVHFQDSLDLILSADSRIVKMWNKNSGKIFTSLEPEHDLNDVCLYPNSGMLLTANETPKMGIYYIPVLGPAPRWCSFLDNLTEELEENPESTVYDDYKFVTKKDLENLGLTHLIGSPFLRAYMHGFFMDIRLYHKVKLMVNPFAYEEYRKDKIRQKIEETRAQRVQLKKLPKVNKELALKLIEEEEEKQKSTWKKKVKSLPNILTDDRFKVMFENPDFQVDEESEEFRLLNPLVSKISEKRKKKLRLLEQQELREKEEEEEPEGKPSDAESSESSDDEKAWVEEVRKQRRLLQQEEKVKRQERLKEDQQTVLKPQFYEIKAGEEFRSFKDSATKQKLMNKTLEDRLKIEAKNGTLSVSDTTVGSKQLTFTLKRSEQQKKQQEAEKLHRQERKRLRRSAGHLKSRHKRGRSFH
# How the values were obtained:
# Myc-Htt (Exon1-103Q) = experiment: co-IP; U2OS cells transiently expressing FLAG-FL-PQBP5 and Myc-Htt or Myc-Atxn1, harvested 48 h after transfection; lysis in TNE buffer, Protein-G Sepharose
# Myc-Htt (Exon1-17Q) = experiment: as above
binder,measurement,setting,value
B1,binding,Myc-Htt (Exon1-103Q),binds
same,binding,Myc-Htt (Exon1-17Q),no binding

# No constants are given. Whether binding was seen depends on the method and setting. In cells and extracts the contact can be indirect. For some assays here: Binding calls can cover weak binding; strength is not graded here. Sequences can lack the tags named with a protein.
